Like-named read-outs stand apart in the source and are kept apart here. Results are given in words; binding and its absence hold for the method and conditions named. Binding seen in cells or lysates may run through a third protein. Some binding calls cover weakened binding; strength is not graded here.

The chains behind the UniProt entries cited, without tags or fusion partners.
UniProt P17844: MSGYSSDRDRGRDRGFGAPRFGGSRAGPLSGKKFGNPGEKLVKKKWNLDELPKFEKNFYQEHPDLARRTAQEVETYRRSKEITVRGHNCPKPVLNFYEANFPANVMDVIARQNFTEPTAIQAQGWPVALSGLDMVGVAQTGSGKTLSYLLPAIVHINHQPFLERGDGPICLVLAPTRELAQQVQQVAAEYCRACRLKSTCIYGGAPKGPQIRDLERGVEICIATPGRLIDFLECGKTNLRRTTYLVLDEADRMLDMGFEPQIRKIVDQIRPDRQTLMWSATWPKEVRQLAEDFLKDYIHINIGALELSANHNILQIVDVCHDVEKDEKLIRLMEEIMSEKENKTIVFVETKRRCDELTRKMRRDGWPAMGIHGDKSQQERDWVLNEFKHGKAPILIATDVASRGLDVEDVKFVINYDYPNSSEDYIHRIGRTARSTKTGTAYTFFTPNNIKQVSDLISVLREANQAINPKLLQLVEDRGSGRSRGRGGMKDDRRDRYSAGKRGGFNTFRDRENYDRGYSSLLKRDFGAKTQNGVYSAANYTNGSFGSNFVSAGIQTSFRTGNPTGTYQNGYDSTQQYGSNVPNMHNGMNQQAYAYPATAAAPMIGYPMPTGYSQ
UniProt O14744: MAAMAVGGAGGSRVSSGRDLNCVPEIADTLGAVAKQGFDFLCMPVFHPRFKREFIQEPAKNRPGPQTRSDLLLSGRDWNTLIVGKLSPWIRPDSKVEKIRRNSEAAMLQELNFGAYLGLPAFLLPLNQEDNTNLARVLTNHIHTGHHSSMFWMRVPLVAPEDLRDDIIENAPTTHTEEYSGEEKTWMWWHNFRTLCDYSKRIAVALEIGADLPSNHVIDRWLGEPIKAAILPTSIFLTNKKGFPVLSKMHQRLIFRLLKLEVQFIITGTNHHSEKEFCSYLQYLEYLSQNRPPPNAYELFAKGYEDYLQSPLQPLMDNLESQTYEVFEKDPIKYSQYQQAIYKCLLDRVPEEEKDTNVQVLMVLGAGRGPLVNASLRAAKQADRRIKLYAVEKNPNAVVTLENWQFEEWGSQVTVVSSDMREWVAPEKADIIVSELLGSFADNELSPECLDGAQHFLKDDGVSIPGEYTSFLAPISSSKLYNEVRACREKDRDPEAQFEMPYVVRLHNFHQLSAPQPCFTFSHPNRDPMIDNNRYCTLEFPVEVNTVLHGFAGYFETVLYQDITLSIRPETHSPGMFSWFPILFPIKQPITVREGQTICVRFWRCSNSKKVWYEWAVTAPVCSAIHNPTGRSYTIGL

We go through three molecules from article doi:10.1101/451823.

Common to all, as to test: co-IP
The target in assay [1] is DDX5 (human (endogenous in U2OS)) (UniProt P17844).
Assay [2] has as its target PRMT5 (human (endogenous in U2OS)) (UniProt O14744).
Assay [3] concerns the target T1, XRN2 (human (endogenous in U2OS and HEK293)) (UniProt Q9H0D6).
T1 sequence: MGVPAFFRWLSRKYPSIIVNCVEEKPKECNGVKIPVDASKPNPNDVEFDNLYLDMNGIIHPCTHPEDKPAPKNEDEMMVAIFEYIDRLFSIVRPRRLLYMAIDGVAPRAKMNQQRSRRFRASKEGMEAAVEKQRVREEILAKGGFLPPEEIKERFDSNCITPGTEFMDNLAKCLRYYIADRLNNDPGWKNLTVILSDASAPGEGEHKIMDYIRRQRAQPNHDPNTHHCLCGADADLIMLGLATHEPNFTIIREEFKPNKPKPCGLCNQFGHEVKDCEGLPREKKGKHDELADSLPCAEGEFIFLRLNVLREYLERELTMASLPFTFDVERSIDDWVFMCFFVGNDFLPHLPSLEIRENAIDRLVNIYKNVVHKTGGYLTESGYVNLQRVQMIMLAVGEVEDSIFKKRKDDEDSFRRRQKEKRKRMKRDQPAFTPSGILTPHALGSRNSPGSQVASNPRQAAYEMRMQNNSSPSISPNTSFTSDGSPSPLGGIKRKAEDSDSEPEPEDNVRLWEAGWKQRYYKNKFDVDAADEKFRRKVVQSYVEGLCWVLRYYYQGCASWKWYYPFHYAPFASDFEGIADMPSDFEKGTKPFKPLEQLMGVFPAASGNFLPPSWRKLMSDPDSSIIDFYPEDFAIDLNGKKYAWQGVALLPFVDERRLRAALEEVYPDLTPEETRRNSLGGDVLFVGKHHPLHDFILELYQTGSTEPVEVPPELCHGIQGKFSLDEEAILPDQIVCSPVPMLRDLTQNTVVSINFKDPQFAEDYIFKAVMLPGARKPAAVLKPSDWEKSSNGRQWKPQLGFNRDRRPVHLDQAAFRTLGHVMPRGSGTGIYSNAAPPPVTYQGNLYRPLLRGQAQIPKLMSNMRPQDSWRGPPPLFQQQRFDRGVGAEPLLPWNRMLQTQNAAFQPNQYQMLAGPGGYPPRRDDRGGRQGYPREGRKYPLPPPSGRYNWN

For assay [4], the target named is Flag-DDX5 (human) (UniProt P17844).
Assay [5] has the same target. The source holds these as a separate data set.

For “PRMT5 (from UniProt O14744 1-637) (enzyme)”, in assay [1], the binding result is reported as “binds”.

As for DDX5 (from UniProt P17844 1-614), the binding entry in assay [2] and in assay [3] was “binds” each time.

B1: XRN2 (enzyme, UniProt Q9H0D6 1-950)
chain: MGVPAFFRWLSRKYPSIIVNCVEEKPKECNGVKIPVDASKPNPNDVEFDNLYLDMNGIIHPCTHPEDKPAPKNEDEMMVAIFEYIDRLFSIVRPRRLLYMAIDGVAPRAKMNQQRSRRFRASKEGMEAAVEKQRVREEILAKGGFLPPEEIKERFDSNCITPGTEFMDNLAKCLRYYIADRLNNDPGWKNLTVILSDASAPGEGEHKIMDYIRRQRAQPNHDPNTHHCLCGADADLIMLGLATHEPNFTIIREEFKPNKPKPCGLCNQFGHEVKDCEGLPREKKGKHDELADSLPCAEGEFIFLRLNVLREYLERELTMASLPFTFDVERSIDDWVFMCFFVGNDFLPHLPSLEIRENAIDRLVNIYKNVVHKTGGYLTESGYVNLQRVQMIMLAVGEVEDSIFKKRKDDEDSFRRRQKEKRKRMKRDQPAFTPSGILTPHALGSRNSPGSQVASNPRQAAYEMRMQNNSSPSISPNTSFTSDGSPSPLGGIKRKAEDSDSEPEPEDNVRLWEAGWKQRYYKNKFDVDAADEKFRRKVVQSYVEGLCWVLRYYYQGCASWKWYYPFHYAPFASDFEGIADMPSDFEKGTKPFKPLEQLMGVFPAASGNFLPPSWRKLMSDPDSSIIDFYPEDFAIDLNGKKYAWQGVALLPFVDERRLRAALEEVYPDLTPEETRRNSLGGDVLFVGKHHPLHDFILELYQTGSTEPVEVPPELCHGIQGKFSLDEEAILPDQIVCSPVPMLRDLTQNTVVSINFKDPQFAEDYIFKAVMLPGARKPAAVLKPSDWEKSSNGRQWKPQLGFNRDRRPVHLDQAAFRTLGHVMPRGSGTGIYSNAAPPPVTYQGNLYRPLLRGQAQIPKLMSNMRPQDSWRGPPPLFQQQRFDRGVGAEPLLPWNRMLQTQNAAFQPNQYQMLAGPGGYPPRRDDRGGRQGYPREGRKYPLPPPSGRYNWN
B1: the binding result with Flag-DDX5 (human) [4] and with Flag-DDX5 (human) [5] was “binds” in each case.
